Assay results as given in PubChem BioAssay AID186 (DTP/NCI, 2004).
The mice bore no tumour; each value counts animals alive of those treated. Counts of survivors are from the toxicity check (mostly the fifth day) where no day follows; animals may have died later. Schedules are NCI's codes, read here as Q, the interval in days (D) or hours (H), X, the number of doses. Some doses were run more than once; their values stand side by side, smallest first.

Tested on: B6D2F1 mice, nontumored toxicity test, survival
Experiment: NCI In Vivo Anticancer Drug Screen. Data for tumor model Nontumored Animals (Toxicity Test) in B6D2F1 (BDF1) mice

SMILES: CC(C)[C@]12O[C@H]1[C@@H]1O[C@]13[C@]1(O[C@H]1C[C@H]1C4=C(C(=O)OC4)[C@@H](O)C[C@@]13C)[C@@H]2O
- survivor count (dose: 0.03 mg/kg/injection, schedule: Q01DX009 (ip), vehicle: saline + alcohol): 8 of 8
- survivor count (dose: 0.06 mg/kg/injection, schedule: Q01DX009 (ip), vehicle: saline + alcohol): 8 of 8
- survivor count (dose: 0.06 mg/kg/injection, schedule: Q01DX009 (ip), vehicle: saline with Tween-80): 7 of 7 and 8 of 8
- survivor count (dose: 0.06 mg/kg/injection, schedule: Q01DX009 (sc), vehicle: saline + alcohol): 8 of 8
- survivor count (dose: 0.06 mg/kg/injection, schedule: Q04DX003 (ip), vehicle: saline + alcohol): 8 of 8
- survivor count (dose: 0.12 mg/kg/injection, schedule: Q01DX009 (ip), vehicle: saline + alcohol): 8 of 8
- survivor count (dose: 0.12 mg/kg/injection, schedule: Q01DX009 (ip), vehicle: saline with Tween-80): 8 of 8
- survivor count (dose: 0.12 mg/kg/injection, schedule: Q01DX009 (sc), vehicle: saline + alcohol): 8 of 8
- survivor count (dose: 0.12 mg/kg/injection, schedule: Q04DX003 (ip), vehicle: saline + alcohol): 8 of 8
- survivor count (dose: 0.12 mg/kg/injection, schedule: Q08DX002 (ip), vehicle: saline + alcohol): 8 of 8
- survivor count (dose: 0.13 mg/kg/injection, schedule: Q01DX009 (ip), vehicle: saline + alcohol): 7 of 8 and 8 of 8
- survivor count (dose: 0.13 mg/kg/injection, schedule: Q01DX009 (ip), vehicle: saline with Tween-80): 8 of 8
- survivor count (dose: 0.13 mg/kg/injection, schedule: Q01DX009 (oral), vehicle: saline + alcohol): 6 of 6 and 8 of 8
- survivor count (dose: 0.25 mg/kg/injection, schedule: Q01DX001 (ip), vehicle: saline + alcohol): 8 of 8
- survivor count (dose: 0.25 mg/kg/injection, schedule: Q01DX009 (ip), vehicle: saline + alcohol): 7 of 7 and 8 of 8
- survivor count (dose: 0.25 mg/kg/injection, schedule: Q01DX009 (ip), vehicle: saline with Tween-80): 8 of 8
- survivor count (dose: 0.25 mg/kg/injection, schedule: Q01DX009 (oral), vehicle: saline + alcohol): 8 of 8
- survivor count (dose: 0.25 mg/kg/injection, schedule: Q01DX009 (sc), vehicle: saline + alcohol): 8 of 8
- survivor count (dose: 0.25 mg/kg/injection, schedule: Q04DX003 (ip), vehicle: saline + alcohol): 8 of 8
- survivor count (dose: 0.25 mg/kg/injection, schedule: Q08DX002 (ip), vehicle: saline + alcohol): 8 of 8
- survivor count (dose: 0.5 mg/kg/injection, schedule: Q01DX001 (ip), vehicle: saline + alcohol): 8 of 8
- survivor count (dose: 0.5 mg/kg/injection, schedule: Q01DX009 (ip), vehicle: saline + alcohol): 2 of 8, 3 of 8, 7 of 8, 7 of 7
- survivor count (dose: 0.5 mg/kg/injection, schedule: Q01DX009 (ip), vehicle: saline with Tween-80): 1 of 8 and 6 of 8
- survivor count (dose: 0.5 mg/kg/injection, schedule: Q01DX009 (oral), vehicle: saline + alcohol): 1 of 8 and 5 of 8
- survivor count (dose: 0.5 mg/kg/injection, schedule: Q01DX009 (sc), vehicle: saline + alcohol): 7 of 8
- survivor count (dose: 0.5 mg/kg/injection, schedule: Q04DX003 (ip), vehicle: saline + alcohol): 8 of 8
- survivor count (dose: 0.5 mg/kg/injection, schedule: Q08DX002 (ip), vehicle: saline + alcohol): 8 of 8
- survivor count (dose: 1.0 mg/kg/injection, schedule: Q01DX001 (ip), vehicle: saline + alcohol): 5 of 8
- survivor count (dose: 1.0 mg/kg/injection, schedule: Q01DX009 (ip), vehicle: saline + alcohol): 0 of 8 and 2 of 8
- survivor count (dose: 1.0 mg/kg/injection, schedule: Q01DX009 (ip), vehicle: saline with Tween-80): 0 of 8
- survivor count (dose: 1.0 mg/kg/injection, schedule: Q01DX009 (oral), vehicle: saline + alcohol): 0 of 8
- survivor count (dose: 1.0 mg/kg/injection, schedule: Q01DX009 (sc), vehicle: saline + alcohol): 0 of 8
- survivor count (dose: 1.0 mg/kg/injection, schedule: Q04DX003 (ip), vehicle: saline + alcohol): 4 of 8
- survivor count (dose: 1.0 mg/kg/injection, schedule: Q08DX002 (ip), vehicle: saline + alcohol): 2 of 8
- survivor count (dose: 2.0 mg/kg/injection, schedule: Q01DX001 (ip), vehicle: saline + alcohol): 0 of 8
- survivor count (dose: 2.0 mg/kg/injection, schedule: Q01DX009 (ip), vehicle: saline + alcohol): 0 of 8
- survivor count (dose: 2.0 mg/kg/injection, schedule: Q01DX009 (ip), vehicle: saline with Tween-80): 0 of 8
- survivor count (dose: 2.0 mg/kg/injection, schedule: Q01DX009 (oral), vehicle: saline + alcohol): 0 of 8
- survivor count (dose: 2.0 mg/kg/injection, schedule: Q01DX009 (sc), vehicle: saline + alcohol): 0 of 8
- survivor count (dose: 2.0 mg/kg/injection, schedule: Q08DX002 (ip), vehicle: saline + alcohol): 0 of 8
- survivor count (dose: 4.0 mg/kg/injection, schedule: Q01DX001 (ip), vehicle: saline + alcohol): 0 of 8
- survivor count (dose: 4.0 mg/kg/injection, schedule: Q01DX009 (oral), vehicle: saline + alcohol): 0 of 8
- survivor count (dose: 8.0 micrograms/kg/injection, schedule: Q03HX024 (ip), vehicle: saline + alcohol): 8 of 8
- survivor count (dose: 8.0 micrograms/kg/injection, schedule: Q03HX024 (sc), vehicle: saline + alcohol): 8 of 8
- survivor count (dose: 15.6 micrograms/kg/injection, schedule: Q03HX016 (ip), vehicle: saline + alcohol): 8 of 8
- survivor count (dose: 15.6 micrograms/kg/injection, schedule: Q03HX024 (ip), vehicle: saline + alcohol): 8 of 8
- survivor count (dose: 15.6 micrograms/kg/injection, schedule: Q03HX024 (sc), vehicle: saline + alcohol): 8 of 8
- survivor count (dose: 16.0 micrograms/kg/injection, schedule: Q03HX024 (oral), vehicle: saline + alcohol): 8 of 8
- survivor count (dose: 31.2 micrograms/kg/injection, schedule: Q03HX008 (ip), vehicle: saline + alcohol): 8 of 8
- survivor count (dose: 31.2 micrograms/kg/injection, schedule: Q03HX016 (ip), vehicle: saline + alcohol): 8 of 8
- survivor count (dose: 31.2 micrograms/kg/injection, schedule: Q03HX024 (ip), vehicle: saline + alcohol): 8 of 8
- survivor count (dose: 31.3 micrograms/kg/injection, schedule: Q03HX024 (oral), vehicle: saline + alcohol): 7 of 8 and 8 of 8
- survivor count (dose: 31.3 micrograms/kg/injection, schedule: Q03HX024 (sc), vehicle: saline + alcohol): 8 of 8
- survivor count (dose: 62.5 micrograms/kg/injection, schedule: Q03HX008 (ip), vehicle: saline + alcohol): 8 of 8
- survivor count (dose: 62.5 micrograms/kg/injection, schedule: Q03HX016 (ip), vehicle: saline + alcohol): 7 of 8
- survivor count (dose: 62.5 micrograms/kg/injection, schedule: Q03HX024 (ip), vehicle: saline + alcohol): 8 of 8
- survivor count (dose: 62.5 micrograms/kg/injection, schedule: Q03HX024 (oral), vehicle: saline + alcohol): 4 of 8 and 7 of 8
- survivor count (dose: 62.5 micrograms/kg/injection, schedule: Q03HX024 (sc), vehicle: saline + alcohol): 7 of 8
- survivor count (dose: 125.0 micrograms/kg/injection, schedule: Q03HX008 (ip), vehicle: saline + alcohol): 0 of 8
- survivor count (dose: 125.0 micrograms/kg/injection, schedule: Q03HX016 (ip), vehicle: saline + alcohol): 0 of 8
- survivor count (dose: 125.0 micrograms/kg/injection, schedule: Q03HX024 (ip), vehicle: saline + alcohol): 0 of 8
- survivor count (dose: 125.0 micrograms/kg/injection, schedule: Q03HX024 (oral), vehicle: saline + alcohol): 0 of 8
- survivor count (dose: 125.0 micrograms/kg/injection, schedule: Q03HX024 (sc), vehicle: saline + alcohol): 0 of 8
- survivor count (dose: 250.0 micrograms/kg/injection, schedule: Q03HX008 (ip), vehicle: saline + alcohol): 0 of 8
- survivor count (dose: 250.0 micrograms/kg/injection, schedule: Q03HX016 (ip), vehicle: saline + alcohol): 0 of 8
- survivor count (dose: 250.0 micrograms/kg/injection, schedule: Q03HX024 (oral), vehicle: saline + alcohol): 0 of 8
- survivor count (dose: 500.0 micrograms/kg/injection, schedule: Q03HX008 (ip), vehicle: saline + alcohol): 0 of 8
